Tests used:
A20 B cell lymphoma = settings: study A20_1, repeat 18 mg/kg HED; mice 1-10 and 1-5
Method: FIG. 10B. […] Mice were inoculated with A20 lymphoma 2×10^6 cells in 100 μL of PBS mixed with 100 μL of chilled Matrigel into their flank. Three, 24 and 48 hours later mice were euthanized and tumors, blood, bone marrow and thymus were taken and made into single cell suspensions for flow cytometry detection of live A20 cells.

[1] = system: CD56+γδTCR+ NKT-like cells; settings: human cancer subjects
Method: For characterisation of the induced/mobilized population of NKT-like cells (AVM-NKT) in humans, whole blood from human subjects was drawn in K2 EDTA Vacutainer tube (367862, BD Biosciences, NJ) and shipped to AVM Biotechnology at room temperature. 100 μl of whole blood was stained with the following antibodies: CD45 AF700 (2D1), CD16 APC (3G8), INKT PECy7 (6B11), CD8 PE (SK1), CD14 FITC (M5E2), CD56 BV650 (5.1H11), γδTCR BV510 (B1), CD19 BV421 (HIB19), NKp44 APC (P44-8) (all from Biolegend, San Diego, CA) and CD3 APCVio770 (BW264/56), (Miltenyi Biotec, San Jose, CA), 7-AAD, (Biolegend, San Diego CA) was included to distinguish the live and dead cells. […] Healthy patient blood from BloodWorks (Seattle, WA), unstained and fluorescence minus one (FMO) were included as controls. 250 μl sample was analyzed on MACSQuant 16 (Serial #40150, Miltenyi Biotec, San Jose, CA) flow cytometer. Data was analyzed using Kaluza 2.1 (Beckman Coulter Lifesciences, Indianapolis, IN) software for different immune population. Data obtained from flow cytometry analyzed by Kaluza were combined to determine different cell populations gated from Live CD45 Lymphocytes: CD3+ T cell, CD8+ cytotoxic T cell, CD3+CD56+ (NKT cells) CD3-CD56+, CD3-CD56bright (NK cells) and CD3-CD19+ (B cells), CD3+γδTCR+ cells, CD3+γδTCR bright cells, CD3+iTCR+ cells, Live WBC CD3-CD16bright granulocytes, Live WBC CD3-CD14+ monocytes. […]

C[C@@H]1C[C@H]2[C@@H]3CCC4=CC(=O)C=C[C@]4(C)[C@@]3(F)[C@@H](O)C[C@]2(C)[C@@]1(O)C(=O)COP(=O)(O)O [AVM0703, dexamethasone sodium phosphate]
tumor necrosis in individual mice (A20 B cell lymphoma): Mouse 1-5 totally necrotic was dosed as shown here
production and mobilization of a γδ Natural Killer T-like cell (CD56+γδTCR+) [1]: induces the production and mobilization

Source: patent US20240358829A1, “Lymphocyte Population and Methods for Producing Same” (AVM Biotechnology, LLC, priority 2021, published 2024)
